Data as given in PubChem BioAssay AID743454 (Peter MacCallum Cancer Centre, 2014).
Shown is one part, drawn at random, of about 18,000 reagents tested. In the full data, 450 (2.5%) are marked active. 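Single biological run; no consistent viability z cut-off exists, so the class columns, not z-scores, define the calls.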

- Screen: 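Knock-downs lowering viability or raising caspase 3/7 activity in vorinostat-treated resistant cells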 (primary screen)
- System: human HCT116-VR colon cancer cells, selected for vorinostat resistance
- Reagent: siRNA pool against human genes, 40 nM siRNA pool
- Time to read-out: vorinostat for 24 h, read-out about 72 h after transfection
- Challenge: vorinostat at 2.5 µM final
- Measured: 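Cell viability by CellTiter-Fluor and caspase 3/7 activity by luminescence, each scaled to mock wells per plate, duplicates averaged, then robust z-scored over all plates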
- Direction: viability robust z-score: higher = more viable cells than screen typical; caspase robust z-score: higher = more caspase 3/7 activity than screen typical
- Call rule: 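a knock-down is a hit when classed RV1 or RV2 for lowered viability, or CA1 or CA2 for caspase activation; those lethal without drug were dropped; hits were retested singly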

| Gene | PubChem SID | viability hit class | caspase hit class | viability robust z-score | caspase robust z-score | activity call |
| --- | --- | --- | --- | --- | --- | --- |
| XRCC6 (X-ray repair cross complementing 6) | SID134310734 | no change | no change | -0.94 | -0.62 | inactive |
| APOA1 (apolipoprotein A1) | SID134315359 | no change | no change | 0.48 | -0.55 | inactive |
| TMEM14C (transmembrane protein 14C) | SID135623955 | no change | no change | -1.55 | -1.38 | inactive |
| CIAPIN1 (cytokine induced apoptosis inhibitor 1) | SID135624023 | no change | no change | -0.32 | 0.36 | inactive |
| TRAFD1 (TRAF-type zinc finger domain containing 1) | SID152151944 | no change | no change | 1.48 | 0.8 | inactive |
| CCR5 (C-C motif chemokine receptor 5) | SID135620897 | no change | no change | 0.09 | 2.05 | inactive |
| ANKK1 (ankyrin repeat and kinase domain containing 1) | SID56478922 | no change | no change | 0.24 | 0.02 | inactive |
| ZBTB38 (zinc finger and BTB domain containing 38) | SID135624388 | RV2 (reduced viability) | no change | -3.41 | 1.12 | active |
| PIP5K1A (phosphatidylinositol-4-phosphate 5-kinase type 1 alpha) | SID56478868 | no change | no change | -0.15 | -0.73 | inactive |
| PIGZ | SID134317200 | no change | no change | -1.1 | 2.64 | inactive |
| SLC2A5 | SID134312564 | no change | no change | 0.08 | 1.85 | inactive |
| PPP5C (protein phosphatase 5 catalytic subunit) | SID134314024 | no change | no change | 0.11 | -0.02 | inactive |
| CDH6 (cadherin 6) | SID134316297 | no change | no change | 0.64 | -0.49 | inactive |
| CRP (C-reactive protein) | SID152148103 | no change | no change | 1.72 | -0.22 | inactive |
| MUTYH (mutY DNA glycosylase) | SID135622408 | no change | no change | 0.78 | 0.1 | inactive |
| FSD1L (fibronectin type III and SPRY domain containing 1 like) | SID135622810 | no change | no change | -0.9 | -0.42 | inactive |
| CINP (cyclin dependent kinase 2 interacting protein) | SID56479270 | no change | no change | -1.17 | 2.61 | inactive |
| CDPF1 (cysteine rich DPF motif domain containing 1) | SID135625102 | no change | no change | -1.38 | -0.96 | inactive |
| TRPA1 | SID152151138 | no change | no change | -0.38 | 2.74 | inactive |
| DRD1 (dopamine receptor D1) | SID152154459 | no change | no change | 0.81 | -0.18 | inactive |
| TWIST2 (twist family bHLH transcription factor 2) | SID134317112 | no change | no change | -0.24 | 1.58 | inactive |
| LINC02872 (long independently transcribed non-coding RNA 2872) | SID135625294 | no change | no change | 0.24 | -0.32 | inactive |
| SNTA1 (syntrophin alpha 1) | SID134316095 | no change | no change | -1.12 | -0.2 | inactive |
| DDX19A (DEAD-box helicase 19A) | SID134319886 | no change | no change | -2.36 | 3.46 | inactive |
| TREX1 (three prime repair exonuclease 1) | SID135622485 | no change | no change | -0.4 | 0.06 | inactive |
| ANG (angiogenin) | SID152154149 | no change | no change | 1.22 | 3.8 | inactive |
| TM4SF4 (transmembrane 4 L six family member 4) | SID135622234 | no change | no change | 1.12 | -0.55 | inactive |
| CHMP4A (charged multivesicular body protein 4A) | SID134324349 | no change | no change | -0.72 | -0.01 | inactive |
| PRDM2 (PR/SET domain 2) | SID135621959 | no change | no change | 2.7 | 0.16 | inactive |

Continued, starting with the last 7 of the part before.
| Gene | PubChem SID | viability hit class | caspase hit class | viability robust z-score | caspase robust z-score | activity call |
| --- | --- | --- | --- | --- | --- | --- |
| SNTA1 (syntrophin alpha 1) | SID134316095 | no change | no change | -1.12 | -0.2 | inactive |
| DDX19A (DEAD-box helicase 19A) | SID134319886 | no change | no change | -2.36 | 3.46 | inactive |
| TREX1 (three prime repair exonuclease 1) | SID135622485 | no change | no change | -0.4 | 0.06 | inactive |
| ANG (angiogenin) | SID152154149 | no change | no change | 1.22 | 3.8 | inactive |
| TM4SF4 (transmembrane 4 L six family member 4) | SID135622234 | no change | no change | 1.12 | -0.55 | inactive |
| CHMP4A (charged multivesicular body protein 4A) | SID134324349 | no change | no change | -0.72 | -0.01 | inactive |
| PRDM2 (PR/SET domain 2) | SID135621959 | no change | no change | 2.7 | 0.16 | inactive |
| ASCL3 (achaete-scute family bHLH transcription factor 3) | SID134313821 | no change | no change | 0.02 | -0.23 | inactive |
| CTAG1A (cancer/testis antigen 1A) | SID134320936 | no change | no change | 1.39 | 0.46 | inactive |
| AMT (aminomethyltransferase) | SID134316798 | no change | no change | -2.2 | 0.29 | inactive |
| PSMF1 (proteasome inhibitor subunit 1) | SID135622300 | no change | no change | -0.45 | 2.08 | inactive |
| SPMAP1 (sperm microtubule associated protein 1) | SID135624942 | no change | no change | 0.21 | 1.77 | inactive |
| LLGL1 (LLGL scribble cell polarity complex component 1) | SID152150603 | no change | no change | 1.07 | -0.78 | inactive |
| ACE (angiotensin I converting enzyme) | SID134311183 | no change | no change | 0.2 | 0.15 | inactive |
| TRMT61A (tRNA methyltransferase 61A) | SID152152594 | no change | no change | 0.67 | -0.69 | inactive |
| GAS2L2 (growth arrest specific 2 like 2) | SID152150250 | no change | no change | -0.32 | 0.16 | inactive |
| MAPK1 (mitogen-activated protein kinase 1) | SID152148532 | no change | no change | -2.25 | -0.82 | inactive |
| MAPDA (N6-Methyl-AMP deaminase) | SID135624288 | no change | no change | 0.59 | -0.34 | inactive |
| SRSF2 (serine and arginine rich splicing factor 2) | SID134323481 | no change | no change | -0.64 | -0.13 | inactive |
| ANP32B (acidic nuclear phosphoprotein 32 family member B) | SID152152540 | no change | no change | -0.76 | -0.56 | inactive |
| CDX1 (caudal type homeobox 1) | SID152150507 | no change | no change | -0.76 | 1.29 | inactive |
| FNDC1 (fibronectin type III domain containing 1) | SID152147942 | no change | no change | -0.4 | 0.36 | inactive |
| KRTAP10-10 (keratin associated protein 10-10) | SID135623613 | no change | no change | -2.2 | 2.01 | inactive |
| IGSF10 (immunoglobulin superfamily member 10) | SID134321904 | no change | no change | -1.18 | 2.39 | inactive |
| NPPB (natriuretic peptide B) | SID152151380 | no change | no change | 0.38 | -0.86 | inactive |
| SLCO4C1 | SID152156054 | no change | no change | -0.72 | 1.65 | inactive |
| OR4F4 (olfactory receptor family 4 subfamily F member 4) | SID134329839 | no change | no change | -0.26 | -0.38 | inactive |
| ELOC (elongin C) | SID134315041 | no change | no change | 0.9 | 1.19 | inactive |
| NOL12 (nucleolar protein 12) | SID152148570 | no change | no change | -1.82 | 0.74 | inactive |
| MIS18A (MIS18 kinetochore protein A) | SID134324432 | no change | no change | 0.46 | -0.15 | inactive |
| ARL5B (ARF like GTPase 5B) | SID135623410 | no change | no change | 0.78 | 0.58 | inactive |
| BAX (BCL2 associated X, apoptosis regulator) | SID135620660 | no change | no change | -0.16 | -0.57 | inactive |
| PARP6 (poly(ADP-ribose) polymerase family member 6) | SID152148894 | no change | no change | -0.55 | 4.47 | inactive |
| ZNF396 (zinc finger protein 396) | SID134324896 | no change | no change | -0.72 | -0.92 | inactive |
| NKX6-1 (NK6 homeobox 1) | SID135623909 | no change | no change | 1.44 | -0.1 | inactive |
| SSX3 (SSX family member 3) | SID134317348 | no change | no change | 0.45 | -1.16 | inactive |
| CHRDL2 (chordin like 2) | SID152151533 | no change | no change | 0.38 | -0.97 | inactive |
| MOBP (myelin associated oligodendrocyte basic protein) | SID152147853 | no change | no change | -0.66 | -0.15 | inactive |
| RC3H2 (ring finger and CCCH-type domains 2) | SID135623989 | no change | no change | -0.34 | 0.66 | inactive |
| ABCB4 (ATP binding cassette subfamily B member 4) | SID152152138 | no change | no change | -0.66 | 1.21 | inactive |
| NHS (NHS actin remodeling regulator) | SID134329496 | no change | no change | 0.16 | -1.04 | inactive |
| LIMS2 (LIM zinc finger domain containing 2) | SID152154779 | no change | no change | 1.04 | 1.86 | inactive |
| CDK11B (cyclin dependent kinase 11B) | SID152152958 | no change | no change | -1.44 | 0.02 | inactive |
| PRDX1 (peroxiredoxin 1) | SID134314911 | no change | no change | -1.03 | -0.4 | inactive |
| RHOXF2 (Rhox homeobox family member 2) | SID134318991 | no change | no change | -1.55 | 0.2 | inactive |
| ENTREP1 (endosomal transmembrane epsin interactor 1) | SID134325041 | no change | no change | -0.7 | -0.4 | inactive |
| ATOSA (atos homolog A) | SID152150857 | no change | no change | 0.03 | 2.11 | inactive |
| C8orf58 (chromosome 8 open reading frame 58) | SID135625394 | no change | no change | 0.42 | -0.52 | inactive |
| RGS9BP (regulator of G protein signaling 9 binding protein) | SID152147871 | no change | no change | -0.28 | 1.64 | inactive |
| FHOD3 (formin homology 2 domain containing 3) | SID135624368 | no change | no change | -1.1 | 1.73 | inactive |
| MYL4 (myosin light chain 4) | SID134316057 | no change | no change | -0.15 | 1.71 | inactive |
